# Experimental data taken from the supplement of paper PMC11732987, “Enantioselective OTUD7B fragment discovery through chemoproteomics screening and high-throughput optimisation” (Communications Chemistry, 2025).
# Amino acid sequences for entries named in this document (tags omitted). A change or cut given only in a name is not applied to a line headed by its entry. Residues count along the entry.
# UniProt Q96CD2, 171-190: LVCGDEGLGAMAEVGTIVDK
# UniProt O95685: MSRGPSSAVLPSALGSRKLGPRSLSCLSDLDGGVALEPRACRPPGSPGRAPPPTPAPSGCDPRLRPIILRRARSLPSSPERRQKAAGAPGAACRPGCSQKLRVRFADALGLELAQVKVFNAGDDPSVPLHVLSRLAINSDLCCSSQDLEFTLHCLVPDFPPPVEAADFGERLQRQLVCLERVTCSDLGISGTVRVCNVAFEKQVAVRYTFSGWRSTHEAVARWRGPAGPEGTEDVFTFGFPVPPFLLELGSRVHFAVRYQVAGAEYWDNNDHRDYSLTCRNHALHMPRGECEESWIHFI
# UniProt P78527, whole entry, looked up: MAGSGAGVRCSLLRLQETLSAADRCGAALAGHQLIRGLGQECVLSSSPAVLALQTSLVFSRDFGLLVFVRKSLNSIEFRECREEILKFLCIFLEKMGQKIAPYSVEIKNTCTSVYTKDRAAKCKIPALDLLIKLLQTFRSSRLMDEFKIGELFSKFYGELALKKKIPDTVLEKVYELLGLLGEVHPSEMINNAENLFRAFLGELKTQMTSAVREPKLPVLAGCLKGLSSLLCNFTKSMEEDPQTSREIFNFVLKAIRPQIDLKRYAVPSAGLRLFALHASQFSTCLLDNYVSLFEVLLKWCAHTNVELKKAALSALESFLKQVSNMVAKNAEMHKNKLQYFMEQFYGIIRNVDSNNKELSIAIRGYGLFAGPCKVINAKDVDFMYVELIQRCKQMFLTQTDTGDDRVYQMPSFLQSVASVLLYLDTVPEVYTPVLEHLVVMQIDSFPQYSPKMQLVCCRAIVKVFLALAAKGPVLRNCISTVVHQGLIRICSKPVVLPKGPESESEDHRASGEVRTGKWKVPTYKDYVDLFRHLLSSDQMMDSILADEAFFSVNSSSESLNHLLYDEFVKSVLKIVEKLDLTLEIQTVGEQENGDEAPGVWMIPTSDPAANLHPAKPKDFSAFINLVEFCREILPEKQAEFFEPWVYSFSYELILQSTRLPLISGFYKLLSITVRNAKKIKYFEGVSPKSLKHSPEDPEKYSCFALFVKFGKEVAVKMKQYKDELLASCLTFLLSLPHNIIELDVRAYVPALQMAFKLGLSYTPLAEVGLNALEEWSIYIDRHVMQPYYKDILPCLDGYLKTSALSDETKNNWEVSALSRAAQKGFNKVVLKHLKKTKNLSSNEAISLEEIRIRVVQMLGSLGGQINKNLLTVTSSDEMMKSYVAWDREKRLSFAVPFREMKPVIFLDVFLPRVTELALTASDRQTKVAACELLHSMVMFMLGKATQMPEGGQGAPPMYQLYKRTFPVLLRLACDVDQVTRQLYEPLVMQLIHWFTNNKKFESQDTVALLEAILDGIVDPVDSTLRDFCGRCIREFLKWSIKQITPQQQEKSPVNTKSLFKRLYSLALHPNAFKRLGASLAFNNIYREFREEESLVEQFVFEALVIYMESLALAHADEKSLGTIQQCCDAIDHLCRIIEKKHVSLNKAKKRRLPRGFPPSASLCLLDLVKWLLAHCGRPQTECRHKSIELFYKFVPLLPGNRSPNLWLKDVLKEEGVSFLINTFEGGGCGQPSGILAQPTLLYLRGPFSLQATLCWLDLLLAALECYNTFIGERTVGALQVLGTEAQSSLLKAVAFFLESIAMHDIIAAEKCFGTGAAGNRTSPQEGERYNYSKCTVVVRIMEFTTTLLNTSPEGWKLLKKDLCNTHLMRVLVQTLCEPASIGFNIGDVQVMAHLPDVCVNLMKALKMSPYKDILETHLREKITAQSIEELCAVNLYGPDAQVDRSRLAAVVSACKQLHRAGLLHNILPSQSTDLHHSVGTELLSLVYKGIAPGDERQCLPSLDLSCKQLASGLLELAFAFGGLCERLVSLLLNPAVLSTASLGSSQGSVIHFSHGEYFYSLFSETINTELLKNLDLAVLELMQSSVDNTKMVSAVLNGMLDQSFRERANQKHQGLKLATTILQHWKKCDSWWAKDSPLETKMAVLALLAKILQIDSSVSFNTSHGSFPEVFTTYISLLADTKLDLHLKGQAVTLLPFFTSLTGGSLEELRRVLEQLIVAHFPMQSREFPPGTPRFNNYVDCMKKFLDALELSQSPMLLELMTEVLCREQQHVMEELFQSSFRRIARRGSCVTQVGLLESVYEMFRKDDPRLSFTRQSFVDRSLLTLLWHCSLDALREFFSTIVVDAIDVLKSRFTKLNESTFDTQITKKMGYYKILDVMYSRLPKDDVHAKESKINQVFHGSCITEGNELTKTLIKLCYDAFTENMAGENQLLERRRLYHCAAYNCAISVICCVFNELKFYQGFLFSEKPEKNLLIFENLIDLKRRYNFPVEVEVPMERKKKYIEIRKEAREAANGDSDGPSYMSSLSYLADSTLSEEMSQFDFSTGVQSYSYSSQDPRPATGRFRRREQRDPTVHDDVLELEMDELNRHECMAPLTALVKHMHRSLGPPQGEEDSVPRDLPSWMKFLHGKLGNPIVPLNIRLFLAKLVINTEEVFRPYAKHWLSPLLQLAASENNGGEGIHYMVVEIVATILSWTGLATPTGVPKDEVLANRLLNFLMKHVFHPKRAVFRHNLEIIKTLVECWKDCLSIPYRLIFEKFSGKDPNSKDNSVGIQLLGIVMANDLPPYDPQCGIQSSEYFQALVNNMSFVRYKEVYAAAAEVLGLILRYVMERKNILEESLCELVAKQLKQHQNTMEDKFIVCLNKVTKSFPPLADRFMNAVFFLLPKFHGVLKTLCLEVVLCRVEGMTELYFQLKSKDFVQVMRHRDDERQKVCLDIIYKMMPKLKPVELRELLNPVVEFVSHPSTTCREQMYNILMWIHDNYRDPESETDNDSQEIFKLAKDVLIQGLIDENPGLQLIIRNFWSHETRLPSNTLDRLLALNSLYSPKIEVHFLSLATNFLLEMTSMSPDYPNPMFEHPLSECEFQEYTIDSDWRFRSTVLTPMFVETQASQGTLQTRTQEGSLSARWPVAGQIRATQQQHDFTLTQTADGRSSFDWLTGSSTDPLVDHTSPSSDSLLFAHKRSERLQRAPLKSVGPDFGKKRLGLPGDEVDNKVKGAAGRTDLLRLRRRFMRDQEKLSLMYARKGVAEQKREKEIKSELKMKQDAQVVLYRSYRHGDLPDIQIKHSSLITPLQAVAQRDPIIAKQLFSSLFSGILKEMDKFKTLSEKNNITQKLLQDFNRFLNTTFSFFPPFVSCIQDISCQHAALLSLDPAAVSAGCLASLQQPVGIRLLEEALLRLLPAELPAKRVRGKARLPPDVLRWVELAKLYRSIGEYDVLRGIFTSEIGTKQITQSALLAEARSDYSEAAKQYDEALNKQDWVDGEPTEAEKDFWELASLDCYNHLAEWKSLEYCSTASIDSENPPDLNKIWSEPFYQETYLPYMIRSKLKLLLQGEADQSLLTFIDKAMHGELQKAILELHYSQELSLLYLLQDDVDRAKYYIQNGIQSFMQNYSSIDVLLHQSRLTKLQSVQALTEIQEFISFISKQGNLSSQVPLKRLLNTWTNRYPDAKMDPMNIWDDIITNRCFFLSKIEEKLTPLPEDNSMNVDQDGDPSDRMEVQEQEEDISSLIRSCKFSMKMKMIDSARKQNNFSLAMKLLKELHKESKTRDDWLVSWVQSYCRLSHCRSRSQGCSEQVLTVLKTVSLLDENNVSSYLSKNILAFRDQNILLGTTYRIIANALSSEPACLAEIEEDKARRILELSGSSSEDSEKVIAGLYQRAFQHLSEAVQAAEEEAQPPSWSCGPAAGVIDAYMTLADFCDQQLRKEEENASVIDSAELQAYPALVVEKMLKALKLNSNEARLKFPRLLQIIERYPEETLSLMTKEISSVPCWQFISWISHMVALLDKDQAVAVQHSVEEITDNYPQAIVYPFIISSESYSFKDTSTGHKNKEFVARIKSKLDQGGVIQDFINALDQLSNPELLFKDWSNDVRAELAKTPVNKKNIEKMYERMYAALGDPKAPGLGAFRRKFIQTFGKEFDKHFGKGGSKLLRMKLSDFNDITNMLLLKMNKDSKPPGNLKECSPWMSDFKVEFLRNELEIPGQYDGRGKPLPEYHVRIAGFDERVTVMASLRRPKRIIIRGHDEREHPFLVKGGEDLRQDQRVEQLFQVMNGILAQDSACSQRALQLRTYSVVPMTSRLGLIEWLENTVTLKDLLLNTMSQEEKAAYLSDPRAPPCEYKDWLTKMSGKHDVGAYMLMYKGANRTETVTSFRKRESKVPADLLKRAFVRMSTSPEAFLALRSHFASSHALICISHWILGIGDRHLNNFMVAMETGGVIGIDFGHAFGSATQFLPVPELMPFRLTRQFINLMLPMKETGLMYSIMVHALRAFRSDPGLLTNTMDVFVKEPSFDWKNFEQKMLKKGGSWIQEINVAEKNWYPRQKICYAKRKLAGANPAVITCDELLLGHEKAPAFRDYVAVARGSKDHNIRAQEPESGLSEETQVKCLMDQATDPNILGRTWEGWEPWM
# UniProt Q9H2U2: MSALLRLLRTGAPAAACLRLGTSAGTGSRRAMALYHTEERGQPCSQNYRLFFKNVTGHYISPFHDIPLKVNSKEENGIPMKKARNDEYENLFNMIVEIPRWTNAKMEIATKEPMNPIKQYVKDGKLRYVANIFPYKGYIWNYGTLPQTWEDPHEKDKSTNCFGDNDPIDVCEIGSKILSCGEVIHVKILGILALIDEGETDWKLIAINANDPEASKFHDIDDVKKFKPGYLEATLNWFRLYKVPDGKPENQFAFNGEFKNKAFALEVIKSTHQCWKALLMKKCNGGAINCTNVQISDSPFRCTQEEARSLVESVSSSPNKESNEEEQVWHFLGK
# UniProt O43172: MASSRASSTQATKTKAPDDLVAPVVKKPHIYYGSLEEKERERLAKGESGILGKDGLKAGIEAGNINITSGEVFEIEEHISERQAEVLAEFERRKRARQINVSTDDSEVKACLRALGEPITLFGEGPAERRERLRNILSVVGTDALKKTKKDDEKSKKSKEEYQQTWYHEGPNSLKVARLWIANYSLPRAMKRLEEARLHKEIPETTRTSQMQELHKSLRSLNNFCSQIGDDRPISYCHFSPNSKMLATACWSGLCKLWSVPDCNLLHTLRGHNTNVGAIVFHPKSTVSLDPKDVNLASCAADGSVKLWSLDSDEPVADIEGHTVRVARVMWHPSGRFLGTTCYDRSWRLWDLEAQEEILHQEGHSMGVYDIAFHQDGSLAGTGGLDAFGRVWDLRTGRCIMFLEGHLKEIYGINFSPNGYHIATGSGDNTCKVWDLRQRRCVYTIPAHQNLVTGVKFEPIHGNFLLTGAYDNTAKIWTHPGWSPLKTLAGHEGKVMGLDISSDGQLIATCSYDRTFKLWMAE
# UniProt O94806, 13-33: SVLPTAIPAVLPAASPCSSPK
# UniProt P78395: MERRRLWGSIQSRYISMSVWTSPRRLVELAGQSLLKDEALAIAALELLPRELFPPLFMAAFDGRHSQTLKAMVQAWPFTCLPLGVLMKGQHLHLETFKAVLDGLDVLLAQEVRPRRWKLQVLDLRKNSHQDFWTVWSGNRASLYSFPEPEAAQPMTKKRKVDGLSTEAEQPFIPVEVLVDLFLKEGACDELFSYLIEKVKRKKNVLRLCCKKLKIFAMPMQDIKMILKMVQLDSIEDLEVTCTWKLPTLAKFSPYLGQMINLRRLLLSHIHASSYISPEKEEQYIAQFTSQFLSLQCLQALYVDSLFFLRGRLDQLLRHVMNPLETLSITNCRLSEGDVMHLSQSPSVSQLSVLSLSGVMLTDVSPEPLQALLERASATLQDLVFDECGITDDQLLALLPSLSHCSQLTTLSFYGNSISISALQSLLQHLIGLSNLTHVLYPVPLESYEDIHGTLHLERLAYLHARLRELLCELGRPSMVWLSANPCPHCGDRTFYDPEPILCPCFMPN
# UniProt P60510: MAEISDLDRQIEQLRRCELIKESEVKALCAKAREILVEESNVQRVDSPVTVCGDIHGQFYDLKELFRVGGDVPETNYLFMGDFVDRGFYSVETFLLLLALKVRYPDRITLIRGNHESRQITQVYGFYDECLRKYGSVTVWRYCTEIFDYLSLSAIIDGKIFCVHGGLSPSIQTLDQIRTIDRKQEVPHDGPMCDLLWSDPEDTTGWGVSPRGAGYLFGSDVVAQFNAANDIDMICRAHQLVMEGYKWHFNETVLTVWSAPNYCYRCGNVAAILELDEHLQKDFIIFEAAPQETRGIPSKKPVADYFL
# UniProt P11908: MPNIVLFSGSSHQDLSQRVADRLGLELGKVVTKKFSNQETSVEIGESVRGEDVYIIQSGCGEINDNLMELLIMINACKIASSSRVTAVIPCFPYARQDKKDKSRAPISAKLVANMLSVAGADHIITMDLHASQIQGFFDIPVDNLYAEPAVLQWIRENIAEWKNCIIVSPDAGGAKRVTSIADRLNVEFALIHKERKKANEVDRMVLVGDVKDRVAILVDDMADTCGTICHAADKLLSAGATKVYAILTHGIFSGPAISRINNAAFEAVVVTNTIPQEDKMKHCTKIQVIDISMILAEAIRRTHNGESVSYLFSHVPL
# Some of the results follow. The data scatter; read single values as rough.
# Key:
# [1] = compound: ClCC(=O)N[C@@H]1CCCc2ccccc12; experiment: log2 mean competition ratio of IA-DTB cysteine labelling (DMSO/compound) (log2 ratio); higher = stronger cysteine engagement by compound; conditions: treatment time: 4 h, cell line lysate: HEK293T
# Experimental: (§1)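 IA-DTB competitive cysteine chemoproteomics in HEK293T RIPA lysate. Lysates were treated with compound 29 or 30 at 50 or 200 µM for 4 h, then IA-DTB (500 µM, 1 h), trypsin-digested, NeutrAvidin-enriched and analysed by diaPASEF. Competition ratio = intensity DMSO / intensity compound (n=4 treated, n=64 DMSO); binding: mean log2 CR ≥ 1 and p ≤ 0.05 plus QC filters. Target is the cysteine site.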
# [2] = compound: ClCC(=O)N[C@H]1CCCc2ccccc12; experiment: as above; conditions: treatment time: 4 h, cell line lysate: HEK293T
# Experimental: as §1
Target,log2 mean competition ratio ([1]; 50 µM),log2 mean competition ratio ([1]; 200 µM),log2 mean competition ratio ([2]; 50 µM),log2 mean competition ratio ([2]; 200 µM)
PPP6R2 C511 (UniProt O75170),-0.0532,-0.3,-0.245,0.0645
POLR2M C65,-0.148,0.237,-0.201,0.319
PPFIBP2 C361 (UniProt Q8ND30),-0.0792,-0.0366,-0.311,-0.0564
POLR3B C687 (UniProt Q9NW08),0.108,0.0468,0.146,0.122
PRPF6 C522 (UniProt O94906),0.288,-0.0434,0.26,0.0862
PPCDC C166 (UniProt Q96CD2),0.0636,-0.156,-0.367,-0.0291
PPP1R3D C184 (UniProt O95685),0.147,-0.208,-0.0603,-0.201
PRKDC C111 (UniProt P78527),0.000267,-0.0129,-0.00579,0.0392
PPP1R3D C41 (UniProt O95685),0.366,0.0229,0.421,-0.14
POLR3E C676 (UniProt Q9NVU0),0.0859,-0.0817,-0.444,0.0639
PPA2 C302 (UniProt Q9H2U2),-0.15,0.0336,-0.216,0.00817
PRPF4 C299 (UniProt O43172),-0.219,-0.0818,-0.213,-0.0342
PRPF4 C441 (UniProt O43172),0.163,-0.0477,0.57,-0.0704
PRDM6 C426,-0.0681,-0.0152,0.281,0.169
PPP2R5C C408 (UniProt Q13362),-0.00129,-0.0272,-0.256,-0.135
PRKCD C393 (UniProt Q05655),-0.37,-0.293,0.0172,-0.298
PRKDC C491 (UniProt P78527),0.124,-0.325,-0.228,-0.425
POLR2B C837 (UniProt P30876),-0.0448,0.182,-0.0192,0.207
PRIM2 C367 (UniProt P49643),-0.0328,0.271,-0.109,0.345
PPP6R3 C500 (UniProt Q5H9R7),0.56,0.272,-0.165,0.0922

Target,log2 mean competition ratio ([1]; 50 µM),log2 mean competition ratio ([1]; 200 µM),log2 mean competition ratio ([2]; 50 µM),log2 mean competition ratio ([2]; 200 µM)
PPP6R3 C37 (UniProt Q5H9R7),-0.0485,-0.16,0.104,-0.177
PRC1 C14 (UniProt O43663),–,–,-0.39,-0.11
PPP2R1A C377 (UniProt P30153),–,–,0.0418,0.138
PRKD3 C29 (UniProt O94806),–,–,-0.226,-0.0116
PPIP5K2 C338,–,–,-0.172,0.028
PRPS1 C165,–,–,-0.194,-0.183
PRKDC C4106 (UniProt P78527),–,–,0.417,0.208
PRC1 C72 (UniProt O43663),–,–,0.106,-0.124
PRPF19 C114 (UniProt Q9UMS4),–,–,-0.312,0.136
PRIM2 C384 (UniProt P49643),0.123,–,-0.891,0.486
PRKCB C488 (UniProt P05771),–,–,0.105,0.246
PPP1R3G C225,–,–,0.0965,-0.347
PRKD2 C74,–,–,–,0.239
PPP1R12C C211 (UniProt Q9BZL4),–,–,0.263,-0.048
PPP5C C139 (UniProt P53041),–,–,0.0441,-0.0933
PRKD2 C615,–,0.455,0.0525,-0.0859
PPP6R1 C437 (UniProt Q9UPN7),–,–,0.0472,0.00937
POLR2M C82,–,–,0.251,0.284
POP1 C745 (UniProt Q99575),-0.134,0.0217,0.207,0.0626
PRKRA C77 (UniProt O75569),–,–,-0.00985,-0.0912

# Rewritten bar-delimited: entries from further up
Target | log2 mean competition ratio ([1]; 50 µM) | log2 mean competition ratio ([1]; 200 µM) | log2 mean competition ratio ([2]; 50 µM) | log2 mean competition ratio ([2]; 200 µM)
PPP1R3D C184 (UniProt O95685) | 0.147 | -0.208 | -0.0603 | -0.201
PRKDC C111 (UniProt P78527) | 0.000267 | -0.0129 | -0.00579 | 0.0392
PPP1R3D C41 (UniProt O95685) | 0.366 | 0.0229 | 0.421 | -0.14
POLR3E C676 (UniProt Q9NVU0) | 0.0859 | -0.0817 | -0.444 | 0.0639
PPA2 C302 (UniProt Q9H2U2) | -0.15 | 0.0336 | -0.216 | 0.00817
PRPF4 C299 (UniProt O43172) | -0.219 | -0.0818 | -0.213 | -0.0342
PRPF4 C441 (UniProt O43172) | 0.163 | -0.0477 | 0.57 | -0.0704
PRDM6 C426 | -0.0681 | -0.0152 | 0.281 | 0.169
PPP2R5C C408 (UniProt Q13362) | -0.00129 | -0.0272 | -0.256 | -0.135
PRKCD C393 (UniProt Q05655) | -0.37 | -0.293 | 0.0172 | -0.298

# Further results:

Target,log2 mean competition ratio ([1]; 50 µM),log2 mean competition ratio ([1]; 200 µM),log2 mean competition ratio ([2]; 50 µM),log2 mean competition ratio ([2]; 200 µM)
PRAME C188 (UniProt P78395),–,-0.154,-0.051,-0.0918
PRKDC C2469 (UniProt P78527),0.131,0.201,-0.251,0.248
PPIP5K2 C1094,-0.0155,–,–,0.195
POLR2A C1287,–,–,0.365,-0.278
PPP2CA C20,-0.113,0.254,0.0663,0.357
PPP4C C52 (UniProt P60510),0.0448,0.0434,-0.147,-0.174
PRKRA C54 (UniProt O75569),–,–,0.798,-0.0429
PRMT3 C67 (UniProt O60678),-0.265,0.095,-0.346,0.0436
PPP6R1 C172 (UniProt Q9UPN7),–,–,-0.891,0.123
PPCDC C173 (UniProt Q96CD2),-0.127,-0.092,0.276,-0.131
PRKCI C400 (UniProt P41743),–,–,0.252,0.131
PRPF3 C630 (UniProt O43395),0.132,0.0581,-0.0521,0.0776
PRMT9 C290 (UniProt Q6P2P2),–,–,-0.017,0.193
PPIP5K2 C615,–,–,0.493,-0.211
PRKD1 C726 (UniProt Q15139),–,–,0.0177,0.275
PRKDC C2342 (UniProt P78527),-0.17,-0.337,-0.291,-0.112
PPP2R1A C329 (UniProt P30153),0.0806,-0.488,-0.113,-0.431
PRPF6 C901 (UniProt O94906),-0.107,0.0585,-0.134,0.0744
PRPS2 C165 (UniProt P11908),–,–,-0.166,-0.302
